doi:10.1101/517789
Read-outs that look alike come from different tables or passages of the source. No constants are given. Whether binding was seen depends on the method and setting. Binding seen in cells or lysates may run through a third protein. Binding can be weak; no strength is given. For some assays here: Tags and fused reporters may be left off the sequences shown.

What was measured:
[1] = biological target: T1, 6His-V5-plakoglobin (FL) (UniProt P14923); test: pull-down
T1 sequence: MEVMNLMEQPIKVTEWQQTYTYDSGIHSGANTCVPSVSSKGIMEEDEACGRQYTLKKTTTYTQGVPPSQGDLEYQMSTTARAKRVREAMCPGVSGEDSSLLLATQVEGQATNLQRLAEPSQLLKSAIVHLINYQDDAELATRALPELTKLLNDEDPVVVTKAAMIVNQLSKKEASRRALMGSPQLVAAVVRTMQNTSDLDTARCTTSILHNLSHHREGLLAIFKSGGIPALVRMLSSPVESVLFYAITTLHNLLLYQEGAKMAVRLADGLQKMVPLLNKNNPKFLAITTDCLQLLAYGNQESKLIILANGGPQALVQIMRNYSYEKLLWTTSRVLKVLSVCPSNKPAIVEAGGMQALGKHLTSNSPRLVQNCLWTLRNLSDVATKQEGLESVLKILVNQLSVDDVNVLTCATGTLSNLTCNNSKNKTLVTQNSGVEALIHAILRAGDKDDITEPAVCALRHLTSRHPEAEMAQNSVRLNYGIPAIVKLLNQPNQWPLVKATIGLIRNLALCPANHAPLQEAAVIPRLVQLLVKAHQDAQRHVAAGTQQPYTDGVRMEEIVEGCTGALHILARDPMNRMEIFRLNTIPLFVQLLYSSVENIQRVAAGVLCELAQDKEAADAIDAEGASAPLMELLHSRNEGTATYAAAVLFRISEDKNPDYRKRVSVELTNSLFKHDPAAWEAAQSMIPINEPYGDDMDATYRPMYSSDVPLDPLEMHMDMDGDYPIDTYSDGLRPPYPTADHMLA

[2] = biological target: T2, 6His-tagged plakoglobin (UniProt P14923); test: pull-down
T2 sequence: T1 sequence

[3] = biological target: T3, plakoglobin (mouse (endogenous in skeletal muscle, heart, liver)) (UniProt Q02257); test: co-IP
T3 sequence: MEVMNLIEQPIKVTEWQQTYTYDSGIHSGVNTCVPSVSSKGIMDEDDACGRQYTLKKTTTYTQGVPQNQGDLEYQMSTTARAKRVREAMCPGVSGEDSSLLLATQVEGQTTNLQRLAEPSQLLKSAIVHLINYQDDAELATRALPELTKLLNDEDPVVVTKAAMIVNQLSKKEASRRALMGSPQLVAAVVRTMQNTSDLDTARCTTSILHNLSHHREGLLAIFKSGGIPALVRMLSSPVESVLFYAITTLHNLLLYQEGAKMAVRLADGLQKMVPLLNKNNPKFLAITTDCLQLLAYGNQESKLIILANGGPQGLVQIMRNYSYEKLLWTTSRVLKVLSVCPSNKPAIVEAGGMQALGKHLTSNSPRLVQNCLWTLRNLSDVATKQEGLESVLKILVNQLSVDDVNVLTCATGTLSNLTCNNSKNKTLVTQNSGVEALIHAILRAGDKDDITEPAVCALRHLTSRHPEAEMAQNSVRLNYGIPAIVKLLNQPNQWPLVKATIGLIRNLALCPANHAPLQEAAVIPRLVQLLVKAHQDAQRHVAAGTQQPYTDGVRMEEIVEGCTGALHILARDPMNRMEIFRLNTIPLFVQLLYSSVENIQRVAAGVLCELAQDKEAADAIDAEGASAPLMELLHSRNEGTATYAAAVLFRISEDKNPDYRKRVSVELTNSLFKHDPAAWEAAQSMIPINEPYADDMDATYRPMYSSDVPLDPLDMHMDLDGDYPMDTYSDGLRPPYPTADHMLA

[4] = biological target: T3, plakoglobin (mouse (endogenous in skeletal muscle, heart, liver)); test: co-IP; remark: listed apart in the source
[5] = biological target: T3, plakoglobin (mouse (endogenous in skeletal muscle, heart, liver)); test: co-IP; remark: listed apart in the source
[6] = biological target: T2, 6His-tagged plakoglobin; test: co-IP
[7] = biological target: T3, plakoglobin (mouse (endogenous in skeletal muscle, heart, liver)); test: co-IP; remark: listed apart in the source
[8] = biological target: 6His-V5-plakoglobin ΔC; test: pull-down
[9] = biological target: 6His-V5-plakoglobin ΔN; test: pull-down

Measured: binding

insulin receptor
binds: [1] | [2] | [3] | [4] | [5] | [6] | [7]

p85 regulatory subunit of PI3K (mouse (endogenous in skeletal muscle))
binds: [3] | [6]

B1: β-dystroglycan (protein, UniProt Q62165 652-893)
chain: SIVVEWTNNTLPLEPCPKEQIIGLSRRIADENGKPRPAFSNALEPDFKALSIAVTGSGSCRHLQFIPVAPPSPGSSAAPATEVPDRDPEKSSEDDVYLHTVIPAVVVAAILLIAGIIAMICYRKKRKGKLTLEDQATFIKKGVPIIFADELDDSKPPPSSSMPLILQEEKAPLPPPEYPNQSMPETTPLNQDTVGEYTPLRDEDPNAPPYQPPPPFTAPMEGKGSRPKNMTPYRSPPPYVPP
modifications: glycosylated form in the plakoglobin-containing fractions (sites not given)
binds: [8] | [9]
